According to the supplement of paper PMC10849652:
The list shows a part of the results.

The chains behind the UniProt entries cited, without tags or fusion partners. Where a name states a change or a piece, a line headed by the entry shows the natural chain unless it says otherwise.
UniProt O14678: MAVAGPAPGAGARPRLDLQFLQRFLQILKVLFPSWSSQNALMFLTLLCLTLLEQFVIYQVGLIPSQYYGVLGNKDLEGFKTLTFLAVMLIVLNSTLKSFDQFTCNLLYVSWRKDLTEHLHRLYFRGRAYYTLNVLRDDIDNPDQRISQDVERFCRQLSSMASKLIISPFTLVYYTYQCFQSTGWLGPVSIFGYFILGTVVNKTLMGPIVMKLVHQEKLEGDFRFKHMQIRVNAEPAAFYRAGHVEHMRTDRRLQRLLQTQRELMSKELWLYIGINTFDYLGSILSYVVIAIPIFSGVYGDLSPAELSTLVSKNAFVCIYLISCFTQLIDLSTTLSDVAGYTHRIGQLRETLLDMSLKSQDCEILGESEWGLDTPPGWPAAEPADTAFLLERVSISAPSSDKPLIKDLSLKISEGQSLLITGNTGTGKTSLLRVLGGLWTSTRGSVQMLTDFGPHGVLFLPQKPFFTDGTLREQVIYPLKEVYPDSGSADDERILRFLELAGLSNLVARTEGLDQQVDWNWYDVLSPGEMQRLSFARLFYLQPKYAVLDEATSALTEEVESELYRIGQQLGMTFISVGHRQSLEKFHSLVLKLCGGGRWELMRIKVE
UniProt Q9NRK6: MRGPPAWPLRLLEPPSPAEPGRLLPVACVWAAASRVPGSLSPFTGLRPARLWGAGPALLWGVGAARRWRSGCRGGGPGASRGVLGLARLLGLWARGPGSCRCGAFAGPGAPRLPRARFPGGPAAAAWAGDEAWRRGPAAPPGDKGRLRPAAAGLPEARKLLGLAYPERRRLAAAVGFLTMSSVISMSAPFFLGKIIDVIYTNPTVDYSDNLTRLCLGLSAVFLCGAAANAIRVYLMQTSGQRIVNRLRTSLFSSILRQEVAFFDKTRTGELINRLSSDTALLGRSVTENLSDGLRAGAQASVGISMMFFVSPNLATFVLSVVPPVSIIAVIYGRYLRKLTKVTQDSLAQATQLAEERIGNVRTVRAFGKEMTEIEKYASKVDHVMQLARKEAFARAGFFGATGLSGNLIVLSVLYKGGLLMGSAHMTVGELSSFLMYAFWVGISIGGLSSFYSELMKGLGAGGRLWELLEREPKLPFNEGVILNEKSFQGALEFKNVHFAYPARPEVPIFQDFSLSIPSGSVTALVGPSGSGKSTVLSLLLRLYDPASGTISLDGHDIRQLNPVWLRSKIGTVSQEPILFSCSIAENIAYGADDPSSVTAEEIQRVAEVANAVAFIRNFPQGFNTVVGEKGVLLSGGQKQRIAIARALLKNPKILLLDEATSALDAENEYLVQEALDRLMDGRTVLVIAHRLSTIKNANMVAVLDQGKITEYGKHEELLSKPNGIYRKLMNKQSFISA
UniProt P78536: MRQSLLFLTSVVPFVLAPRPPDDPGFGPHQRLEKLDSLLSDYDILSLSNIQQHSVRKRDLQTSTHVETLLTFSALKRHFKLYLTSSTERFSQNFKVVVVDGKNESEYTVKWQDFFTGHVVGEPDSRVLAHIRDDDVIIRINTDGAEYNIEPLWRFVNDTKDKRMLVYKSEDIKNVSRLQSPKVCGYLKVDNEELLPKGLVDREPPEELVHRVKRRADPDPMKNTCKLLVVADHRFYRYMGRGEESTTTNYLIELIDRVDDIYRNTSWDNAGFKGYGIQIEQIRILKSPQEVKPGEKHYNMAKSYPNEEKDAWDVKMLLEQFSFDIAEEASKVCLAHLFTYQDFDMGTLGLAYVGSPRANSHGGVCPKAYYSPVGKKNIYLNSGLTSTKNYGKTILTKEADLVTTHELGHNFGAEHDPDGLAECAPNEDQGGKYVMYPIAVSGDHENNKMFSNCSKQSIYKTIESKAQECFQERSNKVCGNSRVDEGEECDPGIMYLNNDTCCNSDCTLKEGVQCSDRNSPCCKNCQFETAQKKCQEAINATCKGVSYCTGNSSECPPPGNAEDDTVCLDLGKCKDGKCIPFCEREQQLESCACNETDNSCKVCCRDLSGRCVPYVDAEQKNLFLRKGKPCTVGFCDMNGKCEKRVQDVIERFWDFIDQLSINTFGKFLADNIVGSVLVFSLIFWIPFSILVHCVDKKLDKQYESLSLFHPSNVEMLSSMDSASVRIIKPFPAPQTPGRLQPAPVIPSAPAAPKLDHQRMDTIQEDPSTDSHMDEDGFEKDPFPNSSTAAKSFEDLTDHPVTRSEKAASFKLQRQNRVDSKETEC
UniProt P07311: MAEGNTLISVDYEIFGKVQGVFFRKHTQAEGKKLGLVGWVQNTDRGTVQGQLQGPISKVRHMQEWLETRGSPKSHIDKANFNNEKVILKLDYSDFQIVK
UniProt P53396: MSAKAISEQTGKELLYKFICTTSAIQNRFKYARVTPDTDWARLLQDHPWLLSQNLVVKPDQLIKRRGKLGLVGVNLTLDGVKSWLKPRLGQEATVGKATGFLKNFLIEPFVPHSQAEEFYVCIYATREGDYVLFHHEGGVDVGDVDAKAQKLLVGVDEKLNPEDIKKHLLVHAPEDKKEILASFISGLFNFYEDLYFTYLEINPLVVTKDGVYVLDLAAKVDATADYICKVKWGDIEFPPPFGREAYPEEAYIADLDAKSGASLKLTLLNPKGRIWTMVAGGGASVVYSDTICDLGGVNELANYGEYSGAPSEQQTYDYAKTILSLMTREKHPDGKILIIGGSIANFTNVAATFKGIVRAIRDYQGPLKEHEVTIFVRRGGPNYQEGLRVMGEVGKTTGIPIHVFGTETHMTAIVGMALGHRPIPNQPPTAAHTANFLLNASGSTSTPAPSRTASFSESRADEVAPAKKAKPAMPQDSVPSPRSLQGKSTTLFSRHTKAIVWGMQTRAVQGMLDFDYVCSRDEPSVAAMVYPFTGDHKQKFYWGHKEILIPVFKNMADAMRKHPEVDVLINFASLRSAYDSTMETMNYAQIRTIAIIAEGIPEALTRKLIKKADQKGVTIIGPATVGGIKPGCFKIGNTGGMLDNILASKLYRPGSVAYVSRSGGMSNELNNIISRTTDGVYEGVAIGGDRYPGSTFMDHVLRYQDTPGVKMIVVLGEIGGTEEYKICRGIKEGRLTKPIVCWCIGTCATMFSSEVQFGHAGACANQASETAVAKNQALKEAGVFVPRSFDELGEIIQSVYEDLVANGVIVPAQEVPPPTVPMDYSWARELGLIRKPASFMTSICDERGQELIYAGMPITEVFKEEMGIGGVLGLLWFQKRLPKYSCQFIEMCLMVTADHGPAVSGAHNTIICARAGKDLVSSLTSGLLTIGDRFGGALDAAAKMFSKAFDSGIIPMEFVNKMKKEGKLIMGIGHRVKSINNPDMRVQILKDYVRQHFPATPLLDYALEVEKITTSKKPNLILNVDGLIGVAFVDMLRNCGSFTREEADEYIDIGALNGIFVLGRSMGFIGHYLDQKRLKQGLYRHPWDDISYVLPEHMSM
UniProt Q4L235: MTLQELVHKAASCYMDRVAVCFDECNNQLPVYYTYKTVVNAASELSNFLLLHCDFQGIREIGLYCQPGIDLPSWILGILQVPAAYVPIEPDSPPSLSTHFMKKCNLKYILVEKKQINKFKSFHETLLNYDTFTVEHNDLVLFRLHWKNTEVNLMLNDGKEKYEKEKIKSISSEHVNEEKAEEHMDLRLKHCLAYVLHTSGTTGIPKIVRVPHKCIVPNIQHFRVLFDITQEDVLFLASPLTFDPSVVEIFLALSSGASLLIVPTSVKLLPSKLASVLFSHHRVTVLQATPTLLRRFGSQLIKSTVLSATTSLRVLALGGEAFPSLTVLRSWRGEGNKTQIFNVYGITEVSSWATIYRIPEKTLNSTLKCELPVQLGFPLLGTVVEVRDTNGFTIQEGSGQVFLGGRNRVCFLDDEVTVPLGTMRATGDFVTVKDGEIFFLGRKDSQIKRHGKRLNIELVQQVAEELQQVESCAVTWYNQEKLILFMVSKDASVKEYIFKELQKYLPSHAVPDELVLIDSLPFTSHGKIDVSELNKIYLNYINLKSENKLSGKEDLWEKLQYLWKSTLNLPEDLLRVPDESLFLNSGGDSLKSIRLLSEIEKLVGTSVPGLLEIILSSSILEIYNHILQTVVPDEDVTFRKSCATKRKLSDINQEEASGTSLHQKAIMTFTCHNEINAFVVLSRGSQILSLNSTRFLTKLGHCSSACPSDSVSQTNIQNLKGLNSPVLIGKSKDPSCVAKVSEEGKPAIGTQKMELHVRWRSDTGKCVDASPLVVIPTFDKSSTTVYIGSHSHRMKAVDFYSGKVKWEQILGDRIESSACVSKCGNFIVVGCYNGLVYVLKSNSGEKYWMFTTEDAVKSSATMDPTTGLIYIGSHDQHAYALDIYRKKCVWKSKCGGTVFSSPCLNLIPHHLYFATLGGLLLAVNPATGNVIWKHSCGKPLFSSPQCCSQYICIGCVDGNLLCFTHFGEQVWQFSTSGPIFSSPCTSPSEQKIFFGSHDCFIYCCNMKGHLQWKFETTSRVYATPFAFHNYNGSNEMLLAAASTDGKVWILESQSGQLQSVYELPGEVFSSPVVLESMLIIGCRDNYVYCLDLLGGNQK
UniProt Q8TB40: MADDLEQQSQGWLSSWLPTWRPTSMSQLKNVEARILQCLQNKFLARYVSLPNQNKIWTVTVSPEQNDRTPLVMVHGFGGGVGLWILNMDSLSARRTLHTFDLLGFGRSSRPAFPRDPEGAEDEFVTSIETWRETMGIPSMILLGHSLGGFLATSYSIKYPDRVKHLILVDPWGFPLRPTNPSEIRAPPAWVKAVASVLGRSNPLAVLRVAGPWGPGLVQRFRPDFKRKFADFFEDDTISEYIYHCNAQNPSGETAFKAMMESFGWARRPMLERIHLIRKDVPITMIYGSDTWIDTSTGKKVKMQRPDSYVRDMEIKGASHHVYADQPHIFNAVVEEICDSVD
UniProt Q9NUQ8: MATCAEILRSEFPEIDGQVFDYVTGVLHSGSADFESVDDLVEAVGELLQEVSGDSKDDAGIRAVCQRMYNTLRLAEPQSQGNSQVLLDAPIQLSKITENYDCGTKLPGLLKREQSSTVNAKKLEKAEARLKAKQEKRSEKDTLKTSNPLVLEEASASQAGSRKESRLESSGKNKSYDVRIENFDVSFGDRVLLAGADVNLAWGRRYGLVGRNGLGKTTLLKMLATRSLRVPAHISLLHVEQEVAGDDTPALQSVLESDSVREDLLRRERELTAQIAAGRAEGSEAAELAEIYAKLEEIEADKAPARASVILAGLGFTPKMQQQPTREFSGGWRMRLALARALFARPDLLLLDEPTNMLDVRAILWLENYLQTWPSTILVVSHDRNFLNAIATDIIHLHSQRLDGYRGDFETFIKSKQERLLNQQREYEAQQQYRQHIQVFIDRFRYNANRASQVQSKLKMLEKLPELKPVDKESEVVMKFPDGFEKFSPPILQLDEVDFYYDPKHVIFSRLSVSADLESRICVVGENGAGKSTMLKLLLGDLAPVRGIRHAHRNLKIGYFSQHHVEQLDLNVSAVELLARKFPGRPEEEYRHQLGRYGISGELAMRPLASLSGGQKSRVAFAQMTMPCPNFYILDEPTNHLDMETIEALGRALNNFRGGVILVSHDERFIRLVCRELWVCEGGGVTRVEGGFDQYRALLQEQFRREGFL

Key:
Test in all cases: log2 fold change, soluble protein after heating vs DMSO (PISA); higher = thermal stabilisation; K562 cells, 10 uM, 30 min; active = over 0.2 and 3.5 SD of the protein, either way, in both replicates (recomputed)
[1] = compound: C1=CC=C(C=C1)[C@H](COC2=CC3=C(C=C2)NC(=O)N3)NC(=O)C4=CC=CN(C4=O)CC5=CC(=C(C=C5)F)F
How it was run: (§1)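 K562 cells (2×10^6 cells/mL) were treated with 10 μM compound for 30 min, and aliquots were heated for 3 min over 48°C-58°C. Pooled aliquots were extracted in PBS with 0.5% NP-40 at 4°C, and the supernatant after 21,000xg for 90 min was measured by TMTpro 16plex LC-MS/MS with channel sums equalised. Reported thermal stability, relative to control samples and from duplicates, is a log2 fold change.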

[2] = compound: CC1=C(SC2=C1C(=N[C@H](C3=NN=C(N32)C)CC(=O)N)C4=CC=C(C=C4)Cl)C
How it was run: as §1

[3] = compound: CC1=C2C(=CC=C1)N=C(N(C2=O)C3=CC=CC=C3C)CN4C=NC5=C(N=CN=C54)N
How it was run: as §1

[4] = compound: Cc1sc2c(c1C)C(c1ccc(Cl)cc1)=N[C@@H](CC(=O)OC(C)(C)C)c1nnc(C)n1-2
How it was run: as §1

[5] = compound: c1ccc([C@@H]2C[C@H]2NC2CCNCC2)cc1
How it was run: as §1

Measured: log2 fold change

ABCD4 (UniProt O14678)
inactive: [1] 0.201 | [2] 0.058 | [3] 0.329 | [4] 0.113 | [5] 0.028

ABRAXAS2 (UniProt Q15018)
inactive: [1] 0.017 | [2] 0.029 | [3] 0.032 | [4] -0.026 | [5] 0.019

ABCB10 (UniProt Q9NRK6)
inactive: [1] 0.006 | [2] 0.008 | [3] -0.013 | [4] 0 | [5] 0.039

ADAM17 (UniProt P78536)
inactive: [1] 0.014 | [2] 0.006 | [3] -0.01 | [4] 0.024 | [5] 0.019

ACYP1 (UniProt P07311)
inactive: [1] -0.039 | [2] 0.086 | [3] 0.052 | [4] -0.024 | [5] -0.012

ACLY (UniProt P53396)
inactive: [1] 0.056 | [2] 0.036 | [3] 0.042 | [4] 0.009 | [5] -0.008

ACTB, A0A2R8YEA7
inactive: [1] -0.012 | [2] 0.035 | [3] -0.36 | [4] -0.098 | [5] -0.259

AASDH (UniProt Q4L235)
inactive: [1] 0.047 | [2] 0.054 | [3] -0.25 | [4] -0.05 | [5] 0.037

ABHD4 (UniProt Q8TB40)
inactive: [1] 0.12

ABCF3 (UniProt Q9NUQ8)
inactive: [1] -0.047 | [2] -0.113 | [3] -0.05 | [4] 0.137 | [5] 0.031
